Structures can show the parent of a compound that is named as a salt. Some entries share one result that the patent states for a list of compounds.
Tested on: SARS-CoV-2
Assay type: cell-based
Details: at the 10 μM concentration, alone

## COc1cccc(-c2ccc(NC(=O)C3=C(C(=O)O)CCC3)c(F)c2)c1 [IMU-838, 1-cyclopentene-1-carboxylic acid, 2-(((3-fluoro-3′-methoxy(1,1′-biphenyl)-4-yl)amino)carbonyl)-, calcium salt (2:1)]
  reduction of SARS-CoV-2 titer: > 1 log 10 CCID50

From patent publication US11376232B2, “Vidofludimus for use in the treatment or prevention of viral diseases” (Immunic AG, priority 2020, dated 2022)
